Data taken from PubChem BioAssay AID1347423 (Functional Genomics Laboratory (NCATS/FGL), 2020).
Among all 52,000 sequences or so, about 210 (0.4%) were called active.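 Rule for the calls: active = gene whose silencing raises cell survival under the drug, median off-target-corrected z-score across its silencing RNAs 2 or more; inactive = the rest.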 Some of the results follow.

Test: Resistance to Poly (ADP-Ribose) Polymerase inhibitor: Gene Identification via Genome-wide siRNA Screen
Conditions: mouse BRCA2 R2336H ES cells, olaparib, CellTiter-Glo viability; hits give high values
Procedure, shortened: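 Genome-wide siRNA screen (3 siRNAs/gene, 20 nM) in mouse ES cells carrying hypomorphic BRCA2 R2336H; olaparib 500 nM added 48 h post-transfection, CellTiter-Glo viability 72 h later. Normalized to plate-median negative control; MAD z-scores, gene median, seed-adjusted.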

| Sequence | z-score |
| --- | --- |
| CAUGUCAUGCACAAUAGUUTT against Cd200r4 | inactive: -0.0561 |
| GGCUUUCACGCUUUGACAATT against Ap1m2 | inactive: 0.615 |
| GGGAUUGGAAGAGAAAUGGTT against Hsd11b1 | inactive: 0.0967 |
| GCGAAUGUGUGUAUUCUGGTT against MGC65590 | inactive: -1.5 |
| GGGUAACUAACAUUAAUGGTT against Adam12 | inactive: 1.73 |
| CCUUCAUGUCUGCAUAUUUTT against Cth | inactive: -0.394 |
| GGUUCUGCCCUAUUUGUCATT against Aes | inactive: 0.816 |
| GCUAAGAAAGUACAAACCATT against Tmpo | inactive: -1.97 |
| GGAAAGCUUGAAUGUUGAGTT against Mup3 | inactive: -1.25 |
| GGCCUUUUUACCUGUGCACTT against 2010319C14Rik | inactive: -0.996 |
| GGAGAGUGCAGUGAUUGCCTT against 8030451F13Rik | inactive: -0.7 |
| CCCUACCUUGAACGAGUACTT against Apoa1 | active: 0.773 |
| GGCUGUUGAGUAUAUAUAUTT against Slc6a8 | inactive: -0.543 |
| GCACACCAGAACUGCAGCUTT against Olfr967 | inactive: 2.06 |
| GGUAAUACCACCUCACCUUTT against B230312A22Rik | inactive: -0.73 |
| GGCAUCUUCAUCAAGGAUUTT against Sf3a1 | inactive: -3.02 |
| CGUAGCUGUAAUUCUUCAGTT against Pcdhgb2 | inactive: -0.24 |
| GGGCUCUUAUGUGAACUUUTT against Lman2 | inactive: -0.285 |
| GUCUGAGAGGAUUGAAACUTT against Manbal | inactive: 0.895 |
| GGACCUCCUGUUUUUAUUCTT against AW555814 | inactive: 0.833 |
| GCCUUUUUCAGACACUAAUTT against 1300012D20Rik | inactive: 1.61 |
| GCUCUGUAAUAUACUUGUATT against Gtf2i | inactive: -1.12 |
| GCUCCUACUACUGCUUUGCTT against Crem | inactive: 0.342 |

| Sequence | z-score |
| --- | --- |
| CGUGAUGGACAGUUUAGACTT against Cenpj | inactive: -1.17 |
| GCCGAGGUAUCCCUUGUUUTT against Sestd1 | inactive: -1.39 |
| GCAAACGAGCUAGUUGUAUTT against Olfr1137 | inactive: -0.517 |
| GCAUCGUUUGUGAGAAUUUTT against Perp | inactive: 0.171 |
| GGCUCUUAGAUACACUUGUTT against Dnajc12 | inactive: -0.533 |
| GGUAAUGUAUUUCAGCUCCTT against Slc6a17 | inactive: -0.911 |
| CCAAGUAAUUCCUACUACUTT against Olfr1100 | inactive: -2.26 |
| GGGAAGUUCGAGCCAAUGUTT against Batf | inactive: -1.7 |
| GGAAAACCUAAUAAGGUUCTT against 1700028P05Rik | inactive: 0.784 |
| CCAUAAGUUUGAAGAAUCCTT against Glg1 | inactive: 0.604 |
| GGAGUUGGAGUUUAUAUUATT against Olfr846 | inactive: -0.114 |
| CCGCUUCUCUAGUGAAUAATT against Uros | inactive: -1.84 |
| GGCAAUCAAUUGGUAGGUATT against 6530402A20 | inactive: -0.368 |
| GGUCAUUGUCAAAGUCAAGTT against Nut | inactive: 0.288 |
| GGUGUAUUUUGUGACUAUCTT against Ugt1a12 | inactive: 1.53 |
| CCCAAAAUGACAUAACAGATT against Pilra | inactive: -1.09 |
| GGACAACAUAGCAAGAUUUTT against C920001D21Rik | inactive: -0.525 |
| GGAGCAGUUCCAUAUGUGCTT against Cap1 | inactive: 1.32 |
| CGGUGCUUGCUUCUAUGUGTT against Olfr642 | inactive: 0.523 |
| CCACCAUCGUUACGUACCATT against Itm1 | inactive: -0.827 |
| GCCCUAGCUUCGAUCUAUUTT against Tcf4 | inactive: 0.332 |
| CCUCAAUAAAAUCCUGGUGTT against Olfr99 | inactive: -2.04 |
| GGAAGCCCUAAAAAAGCUGTT against Ciapin1 | inactive: 0.0247 |

| Sequence | z-score |
| --- | --- |
| CCUUACUAUGGUUGUCCUGTT against Olfr38 | inactive: 0.411 |
| GCAGAUACGACGAAGAUCUTT against 1110049F12Rik | inactive: -0.421 |
| GCAUCCUAGAGAAACUGUCTT against Unc50 | inactive: 0.733 |
| GGAAAGAAACUGCAUCGAGTT against BC050811 | inactive: 0.206 |
| GGACCUAAACUGUCAGGAGTT against Eif3s4 | inactive: -2.67 |
| GGUAAGAGGAUGGACACAATT against Chst1 | inactive: -1.44 |
| CGAGAACUUCAUCAAUCGCTT against 1700112C13Rik | inactive: 0.448 |
| GCAAGUUAACCAGACCCAATT against Mro | inactive: -0.466 |
| GCUACCUUAUCAAGAAUGATT against Snap91 | inactive: 1.48 |
| CGAGAUAAACCUUAGUUCATT against Nudt12 | inactive: -0.0881 |
| GCUAUUUGUCCACAAGUUCTT against Rab2 | inactive: 0.44 |
| GGAUCCAGAAAGUCCAGAUTT against C330027I04Rik | inactive: -0.246 |
| GGACCAUGCUUCGUAUACATT against Idh3b | inactive: -0.567 |
| GUGAUUUGAGAUAAUCUCCTT against 6330583I20Rik | inactive: 1.33 |
| GCAGUAGCAUCCCAUUUGUTT against Ttr | inactive: -1.2 |
| GCUGACGUACCCAGUAUCCTT against Pik3r3 | inactive: -1.41 |
| GGUAUACUGGUUGGAGGACTT against Slc22a8 | inactive: 0.101 |
| GGGAUUUCUCGAAUGAAUGTT against Pgm1 | inactive: 2.68 |
| GUCUACUUUGACCGUGAUGTT against Fthl17 | inactive: 1.97 |
| GGUUGUUAAAAAUGUGUCUTT against Ctdspl | inactive: 0.00853 |
| GGCUGUAGACAUUUUGUCUTT against Sds | inactive: 1.14 |

In another format: entries from further up
Sequence	z-score
GUGAUUUGAGAUAAUCUCCTT against 6330583I20Rik	inactive: 1.33
GCAGUAGCAUCCCAUUUGUTT against Ttr	inactive: -1.2
